Primary screen of a compound library

By UniProt entry, the sequences of proteins in these tests, tags left out.
UniProt P9WFT3, whole entry: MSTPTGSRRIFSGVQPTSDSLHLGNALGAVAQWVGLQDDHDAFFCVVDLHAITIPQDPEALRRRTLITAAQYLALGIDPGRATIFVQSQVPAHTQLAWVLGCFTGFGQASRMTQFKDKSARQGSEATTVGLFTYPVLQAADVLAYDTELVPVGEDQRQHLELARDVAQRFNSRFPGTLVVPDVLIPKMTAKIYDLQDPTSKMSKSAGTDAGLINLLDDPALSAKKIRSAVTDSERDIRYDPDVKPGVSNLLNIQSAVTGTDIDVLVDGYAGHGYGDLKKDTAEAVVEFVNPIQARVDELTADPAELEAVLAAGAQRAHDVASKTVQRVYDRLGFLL
UniProt P9WNZ1, whole entry: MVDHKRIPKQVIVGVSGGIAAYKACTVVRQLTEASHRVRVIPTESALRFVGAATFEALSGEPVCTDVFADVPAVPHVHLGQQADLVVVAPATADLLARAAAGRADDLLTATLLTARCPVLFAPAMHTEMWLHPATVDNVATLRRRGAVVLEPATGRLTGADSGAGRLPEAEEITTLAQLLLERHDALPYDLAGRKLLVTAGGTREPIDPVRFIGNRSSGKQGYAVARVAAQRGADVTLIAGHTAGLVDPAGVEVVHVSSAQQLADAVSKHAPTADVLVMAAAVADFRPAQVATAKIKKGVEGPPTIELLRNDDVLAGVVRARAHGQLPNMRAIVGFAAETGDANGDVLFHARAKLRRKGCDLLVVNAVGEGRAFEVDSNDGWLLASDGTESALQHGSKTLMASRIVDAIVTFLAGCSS

A: 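Enzyme assay of tryptophanyl-tRNA synthetase; the read-out is not stated. Target: Tryptophan-tRNA ligase, Mycobacterium tuberculosis (UniProt P9WFT3). Compounds at 10 µM. Direction is not recorded; retested compounds ran higher, which suggests that high means inhibition. Size under these conditions: about 65,000 compounds, about 64 of them at 50% or above in at least one test.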
B: 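Enzyme assay of CoaBC with a phosphate dye (Biomol Green) read at 650 nm. Target: Coenzyme A biosynthesis protein CoaBC, Mycobacterium tuberculosis (UniProt P9WNZ1). Concentration: 30 µM. Higher reads as stronger inhibition, judged from the few compounds that gave an IC50. Most strong results did not repeat in a second test. Size under these conditions: about 67,000 compounds, about 40 of them at 50% or above in at least one test.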

Each number is a percent effect as filed. The record does not define 0% and 100%; most values in the screen are far below 50% and negative numbers occur (in some assays of this library far below -100). Compounds were drawn at random from those tested, without regard to their results. Two or more numbers in one place are separate tests of the same structure; such repeats can differ widely. A dash means the value is not listed here; it may have been measured.

| compound | A | B |
|---|---|---|
| `Cn1ccnc1SCCNC1CCN(c2ncccn2)CC1` | -4.322 | 16.87 |
| `Cc1ncc(-c2ccccn2)c(CCNC(=O)C2CCCC2)n1` | 4.581 | -8.981 |
| `CC(C)OCCN1CCN(C(=O)c2cc(-n3cccn3)ccn2)CC1` | -2.374 | - |
| `Cc1cc(C)n(CC(=O)N2CCC(NS(C)(=O)=O)CC2)n1` | -2.044 | -7.181 |
| `CC(=O)NC1CCN(C(=O)Nc2ccc(SC(F)F)cc2)CC1` | -2.169 | -3.125 |
| `COCCOCCCC(=O)N1CCC(Cc2ccccc2OC)CC1` | 1.556 | 7.269 |
| `NC(=O)CSCC(=O)NC1(c2cccc(Br)c2)CC1` | 1.375 | -15.36 |
| `CS(=O)(=O)CCS(=O)(=O)Cc1cc(Cl)c2c(c1)OCCCO2` | -1.326 | 2.893 |
| `CCS(=O)(=O)CC(=O)NC(c1ccccc1)C1CCCCC1` (configuration not stated) | 2.86 | 2.834 |
| `NC(=O)C1CCN(C(=O)c2cccn2Cc2cccs2)C1` (configuration not stated) | -8.992 | -3.345 |
| `CC(=O)N1CCN(CCCSCc2ccccc2)CC1` | 5.299 | -11.74 |
| `Cc1ccc(-c2nc(C3CCN(C(=O)c4ccnn4C)CC3)no2)cn1` | -8.548 | 2.283 |
| `COc1cc(N(C)Cc2noc(CC(C)C)n2)ncn1` | 24.28 | -4.444 |
| `O=C(c1ccc(N2CCOCC2)cc1)N1CCCC(n2ccnc2)C1` (configuration not stated) | 3.016 | 0.2558 |
| `CC(C)Cc1ncc2c(n1)CN(c1nc(N(C)C)nc3c1CCCC3)C2` | -4.197 | -2.609 |
| `NC(=O)CSc1ccccc1NCc1nc(C2CC2)no1` | -2.835 | 0 |
| `CCn1c(C)cc(-c2csc(Cn3ccc(=O)[nH]c3=O)n2)c1C` | -2.017 | 2.114 |
| `Cn1cccc1C(=O)N1CCCC(Cn2cc(CO)nn2)C1` (configuration not stated) | 1.201 | -2.096 |
| `COc1ccccc1-c1csc(-c2cccc(C(=O)O)c2)n1` | -26.35 | -0.2475 |
| `Cc1ccc(CNC(=O)CN2CCN(CC(O)c3ccco3)CC2)cc1` (configuration not stated) | -1.874 | -2.155 |
| `CSc1cccc(CNC(=O)[C@H]2CNC[C@@H](C(=O)N3CCOCC3)C2)c1` | 1.127 | -36.58 |
| `Cc1cc(C)n(CC2CCCN2Cc2ccc(F)cc2C#N)n1` (configuration not stated) | -4.702 | 15.33 |
| `CN(Cc1cccs1)C(=O)CN1CCOC(Cn2cncn2)C1` (configuration not stated) | 20.32 | 3.916 |
| `COc1c(CNCc2ccc(Cn3cccn3)cc2)c(C)nn1C` | 1.944 | 6.349 |
| `Cc1cc(N2CCOC(CN)C2)nc(-c2ccccc2)n1` (configuration not stated) | 0.2469 | 6.373 |
| `O=C(NCCc1cccc(F)c1)c1nc2c(s1)CCCN2C(=O)C1CC1` | - | 0.2475 |
| `c1ccc(-n2ccc(CNCC3CCCN3c3cccnn3)n2)cc1` (configuration not stated) | -5.716 | 10.3 |
| `COCC(C)NC(=O)Nc1cc(-c2ccccc2C)nn1CCO` (configuration not stated) | 1.053 | -1.951 |
| `O=C(CNCCn1cccn1)NCC1(c2ccccc2)CCCC1` | -4.263 | 2.872 |
| `CC(=O)NC1CCN(c2cc(C3CCNCC3)ccn2)CC1` | 4.052 | -5.031 |
| `CSc1nccc(N2C[C@@H](CN3CCCCC3)[C@@H](CO)C2)n1` | 22.87 | 8.148 |
| `CCn1c(Cn2cncn2)nnc1C1CCN(C[C@H]2[C@@H]3CNC[C@@H]32)CC1` | 0.3268 | 4.58 |
| `CC(=O)N1CCN(c2cc(CCNC(=O)C(C)C)nc(C3CC3)n2)CC1` | - | 0.2451 |
| `CC(=O)c1ccc(CNC(=O)c2cc(C#N)cn2C)nc1C` | -3.799 | 8.171 |
| `CN(CCc1nc(-c2cccc(Cl)c2)no1)CCn1cccn1` | -3.865 | 2.558 |
| `CC1=Nc2c(c(=O)[nH]n2C2CCCC2)C(c2ccc(C(=O)O)cc2)S1` (configuration not stated) | -0.7776 and -0.4823 | -2.542 and 2.552 |
| `O=C(CCC(=O)N1CCC(OCc2cccnc2)CC1)c1ccccc1` | -0.8653 | 0.2554 |
| `O=c1n(CCn2cccc2)nc(C2CCNCC2)n1Cc1ccccc1` | -3.159 | -34.13 |
| `Cc1noc(-c2ccc(N(C)Cc3cccnc3)nc2)n1` | -0.2467 | 2.577 |
| `c1ncn(CC2CCCN(Cc3csc(-c4ccsc4)n3)C2)n1` (configuration not stated) | 15.11 | 0.1164 |
| `CS(=O)(=O)NCc1noc2c1CN(C(=O)C1CCC1)CC2` | - | 4.579 |

4 of the entries, repeated:

- COc1cc(N(C)Cc2noc(CC(C)C)n2)ncn1 : A: 24.28%; B: -4.444%
- Cc1cc(C)n(CC(=O)N2CCC(NS(C)(=O)=O)CC2)n1 : A: -2.044%; B: -7.181%
- CSc1cccc(CNC(=O)[C@H]2CNC[C@@H](C(=O)N3CCOCC3)C2)c1 : A: 1.127%; B: -36.58%
- Cc1noc(-c2ccc(N(C)Cc3cccnc3)nc2)n1 : A: -0.2467%; B: 2.577%

The values are deposited in ChEMBL (CHEMBL3988442, “University of Dundee, Small-Polar-MMV Screening Library” (2021)).